Measured values: paper PMC5025757, “Sequences flanking the core-binding site modulate glucocorticoid receptor structure and activity”
Numbering of substitutions follows the chain as printed. For at least one entry, the source does not settle the construct or the ends of the probe. At least one verdict rests on a figure or table, not on a statement of the authors. Where a protein sequence is shown, tags need not be part of it.

Columns and labels:
[1] = biological target: T1, GR DBD wild type (rat) (UniProt P06536); assay: EMSA; conditions: value only in figure; EMSA: 20 mM Tris pH 7.5, 2 mM MgCl2, 1 mM EDTA, 10% glycerol, 0.3 mg/ml BSA, 4 mM DTT, 0.05 ug/ul dIdC, 1.25 nM DNA, 30 min; recombinant protein; residues 440-525; label: Cy5 5' of strand 1
T1 sequence (looked up): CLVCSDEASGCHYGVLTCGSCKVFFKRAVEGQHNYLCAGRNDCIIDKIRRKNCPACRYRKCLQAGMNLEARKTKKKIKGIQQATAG

[2] = biological target: T2, GR DBD A477T (dim mutant) (rat) (UniProt P06536); assay: NMR (15N-HSQC); conditions: NMR: 20 mM Na phosphate, 100 mM NaCl, 1 mM DTT, pH 6.7, 5% D2O, imino titration at 25 C; recombinant protein; residues 440-525
T2 sequence (looked up): T1 sequence (looked up) with A38T

| Sequence | binding result [1] | binding result [2] |
| --- | --- | --- |
| TACCAAGAACATTTTGTACGTCTCG (double strand) [CA-Cgt-TC EMSA] | binds |  |
| GCCGAGAACATTTTGTACGCCTCG (double strand) [Cgt G-C NMR] |  | binds |
| TACTAAGAACATTTTGTACGTATCG (double strand) [TA-Cgt-TA EMSA] | binds |  |
| GCCAAGAACATTTTGTACGTCTCG (double strand) [Cgt A-T NMR] |  | binds |
